Data on 44 sequences can be found in the supplement of paper PMC7877785.

± gives the uncertainty stated by the source. Many entries were measured with a wide error.

This data set is described as follows: self-splicing fitness, log relative to wild type (ln ratio); higher = more splicing; Tetrahymena group I intron in knt gene, E. coli kanamycin selection, DiMSum; sequences stand for … in CUCUCU…GGAGGGAAAAGUUAUCAGGCAUGCACCUGGUAGCUAGUCUUUAAACCAAUAGAUUGCAUCGGUUUAAAAGGCAAGACCGUCAAAUUGCGGGAAAGGGGUCAACAGCCGUUCAGUACCAAGUCUCAGGGGAAACUUUGAGAUGGCCUUGCAAAGGGUAUGGUAAUAAGCUGACGGACAUGGUCCUAACCACGCAGCCAAGUCCUAAGUCAACAGAUCUUCUGUUGAUAUGGAUGCAGUUCACAGACUAAAUGUCGGUCGGGGAAGAUGUAUUCUUCUCAUAAGAUAUAGUCGGACCUCUCCUUAAUGGGAGCUAGCGGAUGAAGUGAUGCAACACUGGAGCCGCUGGGAACUAAUUUGUAUGCGAAAGUAUAUUGAUUAGUUUUGGAGUACUCGUGGUCG
The method, boiled down: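 Fitness was computed with DiMSum as the error-weighted combination of replicate fold changes, kanamycin versus none, each normalised to wild type. The library randomised all eight intron nucleotides of the P1ex region, with the intron placed in the knt kanamycin-resistance gene on pET-22b(+) in E. coli BL21(DE3). Six replicate transformations were grown overnight at 37°C or 30°C on LB agar with or without 25 μg/mL kanamycin, plus 100 μg/mL carbenicillin, 50 μM IPTG and 0.2% rhamnose. Pooled colonies were amplicon-sequenced on an Illumina HiSeq 2500.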

Consider AAUGAGCAAUAUUACGGGCC, for which the “self-splicing fitness (ln)” value (30 °C) was -4 ± 0.73.

As for CCUGAGCAAUAUUACGGCAC, the “self-splicing fitness (ln)” value (30 °C) is -3.95 ± 0.59.

For the sequence GACGAGCAAUAUUACGCCAC, the “self-splicing fitness (ln)” value reads like this: (30 °C) -0.828 ± 1; (37 °C) -0.352 ± 0.56.

As for UAGAAGCAAUAUUACGGUAC, under “37 °C”, the “self-splicing fitness (ln)” value is -3.11 ± 0.52.

GGGGAGCAAUAUUACGCCAA: the “self-splicing fitness (ln)” value (30 °C) was -2.23 ± 0.6.

On to GCGCAGCAAUAUUACGCCAC, for which the “self-splicing fitness (ln)” value (30 °C) is -2.61 ± 0.52.

For the sequence UAAGAGCAAUAUUACGUCGC, the “self-splicing fitness (ln)” value (30 °C) was -4.32 ± 0.72.

In the case of CGUUAGCAAUAUUACGAGAC, the “self-splicing fitness (ln)” value (30 °C) was -2.59 ± 0.55 and the “self-splicing fitness (ln)” value (37 °C) was -1.32 ± 0.61.

UUAGAGCAAUAUUACGGUCA: the “self-splicing fitness (ln)” value is -1.7 ± 0.15 (30 °C) and -1.34 ± 0.14 (37 °C).

Turning to GUGGAGCAAUAUUACGGAGA, under “37 °C”, the “self-splicing fitness (ln)” value was -2.35 ± 0.76.

For GAUGAGCAAUAUUACGCCGA, the “self-splicing fitness (ln)” value (30 °C) was -2.45 ± 0.56.

CGUAAGCAAUAUUACGAAUC: the “self-splicing fitness (ln)” value (30 °C) was -2.19 ± 0.51.

Turning to UCUUAGCAAUAUUACGAUCC, where the note is “37 °C”, the “self-splicing fitness (ln)” value worked out at 0.000402 ± 0.62.

Consider AGAUAGCAAUAUUACGGGAU, for which the “self-splicing fitness (ln)” value reads like this: (30 °C) -1.24 ± 0.19; (37 °C) -1.21 ± 0.16.

Consider CGGGAGCAAUAUUACGUCUC, for which, under “37 °C”, the “self-splicing fitness (ln)” value was -3.14 ± 0.74.

On to GGUGAGCAAUAUUACGCUAG, for which the “self-splicing fitness (ln)” value (30 °C) was -3.13 ± 0.74.

For UCAGAGCAAUAUUACGAGAA, the “self-splicing fitness (ln)” value was -2.14 ± 0.54 (30 °C) and -1.83 ± 0.52 (37 °C).

Turning to UAUUAGCAAUAUUACGUGCC, the “self-splicing fitness (ln)” value (30 °C) is -3.87 ± 1 and the “self-splicing fitness (ln)” value (37 °C) is -1.48 ± 0.84.

UAGGAGCAAUAUUACGCCCC: the “self-splicing fitness (ln)” value (30 °C) was -2.79 ± 1.2.

Turning to CUCUAGCAAUAUUACGACGU, for the setting “30 °C”, the “self-splicing fitness (ln)” value is -4.49 ± 0.6.

With CGUUAGCAAUAUUACGCGUC, the “self-splicing fitness (ln)” value (37 °C) is -3.34 ± 0.6.

For the sequence UUUUAGCAAUAUUACGAGAU, the “self-splicing fitness (ln)” value (30 °C) was -3.03 ± 1.1.

With UGAUAGCAAUAUUACGCCCC, the “self-splicing fitness (ln)” value (30 °C) was -2.85 ± 0.43 and the “self-splicing fitness (ln)” value (37 °C) was -0.875 ± 0.38.

As for CCGGAGCAAUAUUACGGGUA, the “self-splicing fitness (ln)” value (37 °C) was -1.91 ± 0.63.

In the case of GAGGAGCAAUAUUACGGCCA, the “self-splicing fitness (ln)” value reads like this: (30 °C) -1.78 ± 0.73; (37 °C) -1.14 ± 0.58.

As to UUGGAGCAAUAUUACGAGUC, the “self-splicing fitness (ln)” value (30 °C) was -2.81 ± 0.53.

On to CCACAGCAAUAUUACGGGGA, for which the “self-splicing fitness (ln)” value is -3.12 ± 0.19 (30 °C) and -2.51 ± 0.17 (37 °C).

UGUUAGCAAUAUUACGGGAU: the “self-splicing fitness (ln)” value (37 °C) was -2.83 ± 0.61.

As to AUAGAGCAAUAUUACGAUCC, the “self-splicing fitness (ln)” value (30 °C) is -3.08 ± 0.33 and the “self-splicing fitness (ln)” value (37 °C) was -2.18 ± 0.36.

With GUCGAGCAAUAUUACGUCCU, the “self-splicing fitness (ln)” value is, setting by setting: (30 °C) -1.68 ± 0.82; (37 °C) -0.735 ± 1.

As for GCGCAGCAAUAUUACGCGGC, the “self-splicing fitness (ln)” value (30 °C) was -2.66 ± 0.5.

On to GCAAAGCAAUAUUACGAGCC, for which, for the setting “37 °C”, the “self-splicing fitness (ln)” value is -2.89 ± 0.75.

As to CUUUAGCAAUAUUACGUUCC, the “self-splicing fitness (ln)” value is, setting by setting: (30 °C) -2.64 ± 0.5; (37 °C) -1.76 ± 0.67.

With CCAGAGCAAUAUUACGGAGA, the “self-splicing fitness (ln)” value (37 °C) was -2.37 ± 0.55.

For the sequence GUGCAGCAAUAUUACGAGCC, the “self-splicing fitness (ln)” value (37 °C) was -1.33 ± 1.2.

Take UUAGAGCAAUAUUACGCUUC: the “self-splicing fitness (ln)” value was -2.81 ± 0.32 (30 °C) and -3.26 ± 1 (37 °C).

For the sequence CUUCAGCAAUAUUACGGGUA, the “self-splicing fitness (ln)” value is, setting by setting: (30 °C) -3.12 ± 0.22; (37 °C) -3.74 ± 0.28.

On to GCACAGCAAUAUUACGUAAC, for which the “self-splicing fitness (ln)” value runs as follows: (30 °C) -1.83 ± 0.092; (37 °C) -0.651 ± 0.11.

Take GGUAAGCAAUAUUACGGGGU: the “self-splicing fitness (ln)” value (30 °C) is -2.71 ± 0.65.

Take UUAGAGCAAUAUUACGGCCU: under “37 °C”, the “self-splicing fitness (ln)” value was -3.09 ± 0.6.

Turning to CUUAAGCAAUAUUACGCAUA, for the setting “37 °C”, the “self-splicing fitness (ln)” value was -3.09 ± 0.6.

For the sequence UGUGAGCAAUAUUACGUCGU, the “self-splicing fitness (ln)” value (37 °C) is -3.21 ± 0.74.

UUCGAGCAAUAUUACGUCAC: where the note is “37 °C”, the “self-splicing fitness (ln)” value was -0.933 ± 0.65.

With GUCAAGCAAUAUUACGGCCC, the “self-splicing fitness (ln)” value (37 °C) was -1.34 ± 0.87.
